Patent publication US20170327556A1, “CARTILAGE-BINDING FUSION PROTEINS” (Merrimack Pharmaceuticals, Inc., priority 2013, published 2017)
For part of these data: At least one compound was matched to its structure with a doubt left. Some of these results come from one statement about several compounds together.

Tests used:
Type in all cases: cell-based
[1] = tested on: human ankle and knee cartilage explants; assay: In vitro joint disease model, explanted human cartilage: ^35S-sulfate incorporation; conditions: Dexamethasone alone 16 days, human knee chondyle cartilage, FIG. 14E
Experimental: Human cartilage explants are harvested from the knee and ankle of human cadaver donors within 24 hours postmortem. Joints are aseptically dissected by a pathologist to assess gross cartilage morphology by the modified Collins scale (Kuettner, et al., Cartilage degeneration in different human joints. Osteoarthritis Cartilage. 2005; 13(2):93-103) and only grade 0 or 1 joints are used. Full-thickness knee cartilage surfaces are harvested from the femoral-patellar groove and chondyles using a scalpel. Full thickness ankle cartilage is harvested from the dome of talus, proximal area under dome of talus, head of the talus, tibial malleolus and fibular malleolus using a scalpel. […]
Time points are taken at day 16 as follows. […] 127-52. ^35S-sulfate content of the digested cartilage explants is quantified by mixing 20 μL of digest with 250 μL of scintillation fluid (Perkin Elmer cat #1200-439) and counting with A WALLAC 1450 MICROBETA TRILUX scintillation counter.
Treatments were given at the following concentrations: GF-Fus1 13.3 nM=135 ng/mL; and GF-Fus3 13.3 nM=181 ng/mL; Dexamethasone 100 nM=39.2 ng/mL. […] The outcomes measured from the cartilage explants at day 16 were ^35S-sulfate incorporation, DNA, and sGAG content, and sGAG released to media for all media changes.

[2] = tested on: human ankle and knee cartilage explants; assay: In vitro joint disease model (cytokines), explanted human cartilage: sGAG loss; conditions: 100 nM, 16 days with cytokines TNF-alpha, IL-6, IL-6R alpha; with and without GF-Fus3; versus Disease
[3] = tested on: bovine cartilage explants; assay: In vitro joint disease model (IL-1), explanted bovine cartilage: ^35S-sulfate incorporation; conditions: day 12, IL-1, FIG. 16
Source text: Bovine cartilage explants (3 mm diameter, 1.2 mm thick) are harvested from the femoral patellar groove of 2-4 week old bovine calves. Knee joints are mounted by removing all tissue surrounding the femur, removing the femoral head with a bone saw or hack saw, and clamping in a tissue vice. Joints are aseptically opened, removing the patella, tibia and fibula. Using a 3 mm diameter disposable biopsy punch, approximately 80×3 mm diameter full thickness cartilage cores are punched from the femoral-patellar groove. A sterile knife is used to slice the cores at the cartilage-bone interface. […]
Timepoints are taken at day 8 and 12: explant tissue is washed four times for 30 min each (2 hr total) in 1 mM unlabeled sodium sulfate in PBS. […] 127-52. ^35S-sulfate content of the digested cartilage explants was quantified by mixing 20 μL of digest with 250 μL of scintillation fluid (Perkin Elmer cat #1200-439) and counting with a WALLAC 1450 MICROBETA TRILUX scintillation counter.
Treatments were given at the following concentrations: wtIGF-1 13.3 nM=100 ng/mL (IGF-1 R&D systems 291-G1); GF-Fus1 (6x-Histidine tagged) 13.3 nM=135 ng/mL; GF-Fus2 (6x-Histidine tagged) 13.3 nM=140 ng/mL; and GF-Fus3 (6x-Histidine tagged)13.3 nM=181 ng/mL. […] The outcomes measured were ^35S-sulfate incorporation, DNA content, and sGAG content of plug at endpoint, and sGAG released to media for all media changes. […]

Row | Compound | sulfated matrix biosynthesis in the absence of cytokines [1] | matrix catabolism (% sGAG loss) [2] | matrix biosynthesis with 4 days of treatment, fold higher than GF-Fus1 [3]
1 | C[C@@H]1C[C@H]2[C@@H]3CCC4=CC(=O)C=C[C@]4(C)[C@@]3(F)[C@@H](O)C[C@]2(C)[C@@]1(O)C(=O)CO [dexamethasone, reference compound] | reduces sulfated matrix biosynthesis | reduces matrix catabolism | –
2 | GF-Fus3: C-terminal fusion IGF-1(LR3)-PRELP heparin binding domain | – | – | more than 2 fold
